No constants are given. Whether binding was seen depends on the method and setting. A result given as binding can be weak or reduced; the word gives no strength.
Target: Gal4 BD fusion with BspF (Brucella abortus) (UniProt Q2YLT8)
Experiment: two-hybrid

Sequences of proteins named here, by UniProt entry; tags and fusion partners are left off. A change or cut given only in a name is not applied to a line headed by its entry.
UniProt Q2YLT8: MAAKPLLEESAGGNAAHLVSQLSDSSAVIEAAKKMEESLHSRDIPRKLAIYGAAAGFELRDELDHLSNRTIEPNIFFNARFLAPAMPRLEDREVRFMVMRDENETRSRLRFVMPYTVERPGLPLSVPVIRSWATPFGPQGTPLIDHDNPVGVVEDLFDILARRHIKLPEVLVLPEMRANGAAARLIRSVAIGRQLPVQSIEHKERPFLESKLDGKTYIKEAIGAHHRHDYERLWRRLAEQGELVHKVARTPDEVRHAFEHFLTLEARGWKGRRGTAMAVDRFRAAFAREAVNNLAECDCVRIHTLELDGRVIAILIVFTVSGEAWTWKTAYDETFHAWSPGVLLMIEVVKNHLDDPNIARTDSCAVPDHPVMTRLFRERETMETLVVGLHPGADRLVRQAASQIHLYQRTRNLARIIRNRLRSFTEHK

B1: ACAP1 C-terminal fragment (residues 460-740), two-hybrid library clone (domain or fragment, UniProt Q15027 460-740)
chain: LTLDSWEPELVKLMCELGNVIINQIYEARVEAMAVKKPGPSCSRQEKEAWIHAKYVEKKFLTKLPEIRGRRGGRGRPRGQPPVPPKPSIRPRPGSLRSKPEPPSEDLGSLHPGALLFRASGHPPSLPTMADALAHGADVNWVNGGQDNATPLIQATAANSLLACEFLLQNGANVNQADSAGRGPLHHATILGHTGLACLFLKRGADLGARDSEGRDPLTIAMETANADIVTLLRLAKMREAEAAQGQAGDETYLDIFRDFSLMASDDPEKLSRRSHDLHTL
- binding: binds

Reference: paper PMC8488576
